Measurements reported in PubChem BioAssay AID686943 (Drosophila RNAi Screening Center, 2013).

Test: 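Search across the genome for regulators of signalling from receptor tyrosine kinase to ERK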 (primary screen)
Cell system: Drosophila S2R+ haemocyte-like cells expressing YFP-tagged ERK (Rolled)
Reagents: long dsRNA against Drosophila genes
Challenge: insulin stimulation versus unstimulated cells; dose and duration not given
Measured: 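Per-plate z-scores of phospho-ERK immunostaining normalised to YFP-tagged ERK, measured with and without insulin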
Reading the numbers: replicate 1, z-score of dpERK with insulin and replicate 2, z-score of dpERK with insulin: higher = more active ERK per ERK-YFP after insulin; replicate 1, z-score of dpERK under basal conditions: higher = more basal active ERK per ERK-YFP; replicate 1, z-score of ERK-YFP with insulin: higher = more YFP-tagged ERK signal
The deposit covers about 23,000 reagents; this is an unselected part of those with a known target gene and a result. 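Extra replicates exist only for a retested subset of genes; insulin dose and duration not given; both raised and lowered dpERK matter.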 Names joined by + are all predicted targets of the reagent. Not given: the amount of reagent, the time to read-out.

| target gene | DRSC id | replicate 1, z-score of dpERK with insulin | replicate 2, z-score of dpERK with insulin | replicate 1, z-score of dpERK under basal conditions | replicate 1, z-score of ERK-YFP with insulin |
| --- | --- | --- | --- | --- | --- |
| CG18302 | DRSC02663 | -0.13 | -0.74 | -0.62 | 0.07 |
| CG11723 | DRSC00324 | -0.01 | -0.75 | 0.24 | 0.18 |
| Sik2 | DRSC18522 | 0.09 | 0.9 | -0.48 | -0.24 |
| ena | DRSC05779 | -2.04 | -0.74 | 0.17 | 0.62 |
| ena | DRSC07610 | -2.12 | -2.09 | 0.73 | 0.13 |
| CR40441 | DRSC22916 | -0.36 | 0.42 | -0.15 | 0.47 |
| Pop5 | DRSC10074 | 0.46 | 1.04 | 2.23 | 1.32 |
| Alg10 | DRSC10892 | -0.02 | -0.15 | 1.15 | 0.48 |
| mRpL18 | DRSC06142 | -1.05 | -0.15 | 1.41 | 1.45 |
| Rpn12 | DRSC11275 | -2.13 | -4.25 | -3.77 | -0.33 |
| bves | DRSC20520 | -0.81 | -0.2 | 0.34 | -0.37 |
| bves | DRSC20554 | 0.25 | -0.08 | 1.75 | -0.01 |
| bves | DRSC20555 | 0.93 | 0.29 | 0.75 | 0.14 |
| Lime | DRSC06752 | 1.31 | 0.9 | 0.91 | 0.93 |
| CG32982 | DRSC01059 | -1.24 | -2.6 | -3.43 | 2.46 |
| CG32982 | DRSC02677 | -0.1 | -0.08 | -1.19 | -0.25 |
| CG32982 | DRSC03268 | 0.49 | 0.12 | 0.2 | -0.09 |
| CG32982 | DRSC03269 | -0.26 | 0.05 | 0.87 | -0.5 |
| CG32982 | DRSC21912 | 0.15 | 0.19 | -0.07 | 1.85 |
| Cyp6d2 | DRSC04606 | -0.37 | -0.23 | -0.34 | 0.22 |
| slv | DRSC07685 | 0.42 | 0.26 | -0.4 | 0.08 |
| LManIV | DRSC03222 | 0.26 | -0.22 | -1.72 | -0.48 |
| ng4 | DRSC18805 | 0.56 | -0.15 | 1.66 | -0.03 |
| Ppa | DRSC04598 | 0.4 | -0.83 | 1.2 | -0.27 |
| Or65a | DRSC08808 | 0.4 | 0.54 | 1.87 | 0.47 |
| lectin-30A | DRSC02560 | -0.13 | 0.57 | 1.22 | 1.49 |
| Vha16-1 | DRSC05020 | -0.31 | 0.07 | -0.68 | 1.01 |
| CG4480 | DRSC02750 | -0.86 | -0.18 | -0.86 | 1.52 |
| CG5084 | DRSC06913 | -0.85 | -0.58 | 0.47 | 1.24 |
| CG33768 | DRSC11715 | 1.5 | 0.26 | 1.55 | -1.5 |
| CG4783 | DRSC15644 | -0.11 | 1.57 | 0.31 | 0.06 |
| CG3662 | DRSC00626 | 0.48 | 0.2 | 0.76 | -2.65 |
| CG33791 + CG18170 | DRSC08523 | 1.01 | 0.73 | -0.92 | 0.02 |
| CG33791 + CG18170 | DRSC08601 | 0.61 | 0.4 | -0.45 | -0.45 |
| piwi | DRSC03592 | -0.31 | -0.71 | 1.32 | 0.18 |
| c12.1 | DRSC18750 | 0.9 | 0.07 | 0.14 | -0.23 |
| CG13983 | DRSC02315 | -0.42 | 0.01 | -0.11 | 0.11 |
| TpnC25D | DRSC02965 | -0.35 | 0.96 | -0.56 | -1.28 |
| CG10184 | DRSC14204 | -0.34 | -0.05 | -0.41 | 0 |
| SPE | DRSC15135 | -0.78 | 0.74 | 0.4 | -0.23 |
| CG1213 | DRSC12191 | -0.01 | -0.45 | -1.55 | 0.02 |
| CG15673 | DRSC04263 | 0.03 | 0.66 | -0.12 | 0.42 |
| COX6AL | DRSC21454 | -0.15 | 0.63 | -0.65 | 0.14 |
| CG14130 | DRSC10134 | -0.18 | -0.46 | 0.23 | 0.16 |
| EndoB | DRSC07345 | -1.93 | -0.04 | -0.68 | -0.99 |
| CG7987 | DRSC16357 | 0.93 | 1 | 0.6 | -0.42 |
| CG14667 | DRSC12253 | -0.59 | -1.65 | -0.37 | -0.66 |
| CG31676 | DRSC02387 | 0.07 | -0.96 | -0.96 | 0.15 |
| Lrch | DRSC02996 | 0.77 | 0.72 | -0.3 | -0.05 |
| p130CAS | DRSC07862 | 1.04 | 1.19 | 0.15 | -0.15 |
| p130CAS | DRSC08257 | 0.87 | 1.37 | -0.2 | 0.28 |
| NimC1 | DRSC01879 | -0.2 | -0.06 | -0.1 | 0.19 |
| Fhos | DRSC08943 | -0.06 | -0.37 | -0.74 | -0.14 |
| Fhos | DRSC10545 | 0.65 | 0.56 | 0.59 | 0.15 |
| Fhos | DRSC10546 | 0.7 | 0.06 | 0.54 | 0.21 |
| Fhos | DRSC10547 | 0.71 | -0.04 | -0.46 | 0.5 |
| CG10650 | DRSC02085 | 0.21 | -0.1 | 1.27 | -0.06 |
| Delta | DRSC16648 | 5.63 | 1.16 | 0.76 | -0.31 |
| CG15439 | DRSC00453 | -0.18 | -0.39 | 1.31 | -0.72 |
| CG3285 | DRSC00589 | -0.13 | 1.1 | -1.62 | -0.73 |
| Octbeta3R | DRSC15351 | -0.18 | -0.77 | 1.73 | 0.1 |
| Octbeta3R | DRSC16191 | 0.83 | 1.17 | -0.5 | -0.16 |
| Octbeta3R | DRSC21853 | 0.41 | 0.86 | 1.22 | 0.02 |
| Octbeta3R | DRSC21902 | 0.34 | -0.15 | -0.68 | 0.41 |
| Octbeta3R | DRSC22350 | -0.24 | -0.23 | -1.56 | 1.63 |
| CG5174 | DRSC06920 | 0.39 | -0.15 | 0.52 | 0.03 |
| SIFaR | DRSC13467 | -0.07 | 1.27 | -0.88 | -0.27 |
| SIFaR | DRSC14266 | 0.42 | -0.6 | 0.9 | -0.27 |
| GckIII | DRSC15729 | -2.46 | -1.58 | 1.96 | -0.37 |
| CG31296 | DRSC13092 | 0.94 | 0.24 | -0.31 | 0.21 |
| CG13312 | DRSC09983 | -0.58 | 0.29 | 1.06 | 0.86 |
| CG15912 | DRSC18105 | -0.12 | -0.45 | -0.25 | 0.2 |
| CG31960 | DRSC00281 | -0.44 | 0.72 | -0.81 | -0.1 |

Entries above whose target name begins with S or s:
| target gene | DRSC id | replicate 1, z-score of dpERK with insulin | replicate 2, z-score of dpERK with insulin | replicate 1, z-score of dpERK under basal conditions | replicate 1, z-score of ERK-YFP with insulin |
| --- | --- | --- | --- | --- | --- |
| Sik2 | DRSC18522 | 0.09 | 0.9 | -0.48 | -0.24 |
| slv | DRSC07685 | 0.42 | 0.26 | -0.4 | 0.08 |
| SPE | DRSC15135 | -0.78 | 0.74 | 0.4 | -0.23 |
| SIFaR | DRSC13467 | -0.07 | 1.27 | -0.88 | -0.27 |
| SIFaR | DRSC14266 | 0.42 | -0.6 | 0.9 | -0.27 |
